The source of these data is PubChem BioAssay AID493014 (National Center for Advancing Translational Sciences (NCATS), 2011).

The list shows a part of the results. The main result of the screen is listed elsewhere. These columns were measured beside it and carry no call. The list favours compounds with an active or inconclusive main result. Words in brackets tell the shape of the fitted curve; partial curves, single points and poor fits give uncertain potencies.

A short description of this assay: qHTS Assay to Find Inhibitors of Chronic Active B-Cell Receptor Signaling. Conditions: ABC-DLBCL IkBa-CBG/CBR reporter, luminescence ratio (green luciferase fused to IkBa over red control in TMD8 lymphoma cells), 4 h. The method in brief:
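TMD8 human ABC-DLBCL cells with doxycycline-inducible IκBα–green luciferase fusion and unfused red luciferase, in 0.5% FBS medium; compounds up to 46 uM, 4 h at 37C. Green/red luminescence ratio, filter-overlap corrected, fitted to concentration-response curves.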

[1] abbreviates: measured here: CBR red luminescence, cell number.
[2] abbreviates: measured here: IkBa-CBG green luminescence.

Take `Cc1cc(=O)[nH]c(N/N=C/c2c(C)nn(-c3ccccc3)c2Cl)n1`: under setting [1], the concentration at half-maximal activity (AC50) (in general, the midpoint of the concentration-response curve, whichever way the signal moves) was 35.5 µM [rising, single point].

As to `CN(C)S(=O)(=O)c1cc(C(=O)Nc2ccccc2C(=O)NC2CC2)ccc1Cl`, under setting [1], the half-maximal activity concentration (AC50) was 7.31 µM [rising, partial curve].

Consider `Cc1ccnc(NC(=O)c2sc3cc(Cl)ccc3c2Cl)c1`, for which, under setting [1], the AC50 is 1.03 µM [falling, partial curve].

Take `COc1ccc(OCCOc2ccccc2[N+](=O)[O-])cc1`: the AC50 under setting [1] is 9.2 µM [rising, partial curve].

Take `Cc1ccc(C(=O)Nc2nc3c(s2)CCCC3)o1`: the AC50 under setting [1] was 14.6 µM [falling, partial curve].

Turning to `CCCCn1c(N)c(N(CCOC)C(=O)CCNC(=O)c2ccc(Br)cc2)c(=O)[nH]c1=O`, the concentration at half-maximal activity (AC50) under setting [1] was 0.092 µM [rising, full curve, poor fit].

With `COc1ccc(-c2[nH]ncc2/C=N\NC(=O)c2cccs2)cc1OC`, the half-maximal activity concentration (AC50) under setting [1] was 35.5 µM [falling, single point].

`CCCCCOC(=O)c1[nH]c2c(c1C)C(=O)CC(c1ccco1)C2` (configuration not stated): the AC50 is, setting by setting: under setting [1], 0.461 µM [rising, full curve]; under setting [2], 0.58 µM [falling, full curve].

As for `COc1ccccc1OCc1ccc(C(=O)Nc2cc(OC)c(OC)c(OC)c2)o1`, the AC50 under setting [1] was 22.4 µM [falling, single point].

As to `COC(=O)c1cccc(NC(=S)NCc2ccc(Cl)cc2)c1`, under setting [1], the AC50 was 9.2 µM [falling, partial curve].

For `Nc1nonc1-n1nnc(C(=O)N/N=C/c2cccnc2)c1CSc1ccc(Cl)cc1`, the concentration at half-maximal activity (AC50) under setting [1] was 22.4 µM [falling, single point].

With `C/C(=N\Nc1ccc([N+](=O)[O-])cc1)c1ccc(O)cc1`, the AC50 under setting [1] was 3.16 µM [rising, partial curve, poor fit].

Regarding `COc1ccc(C2CC(c3ccc(OC)cc3OC(C)=O)=NN2C(=O)c2ccccc2)cc1` (configuration not stated), under setting [1], the half-maximal activity concentration (AC50) is 35.5 µM [falling, single point].

As to `O=C(Nc1cccc(O)c1)c1ccc(NC(=O)c2cccs2)cc1`, the AC50 under setting [1] was 35.5 µM [falling, single point].

Consider `CCOC(=O)c1c(CN(C)C)n(-c2ccccc2)c2cc(Br)c(O)cc12`, for which the AC50 under setting [1] was 0.447 µM [rising, full curve, poor fit].

With `Cc1cc(C)c2c3c(sc2n1)C(c1cccc(F)c1)C(C#N)=C(N)O3` (configuration not stated), the half-maximal activity concentration (AC50) under setting [1] was 18.4 µM [falling, single point].

As for `Cc1ccc(NC(=O)c2ccccc2OCc2ccc([N+](=O)[O-])cc2)nc1`, under setting [1], the AC50 was 0.316 µM [rising, full curve, poor fit].

Take `COc1cc(C2C(C#N)=C(N)OC3=C2C(=O)CC(C)(C)C3)ccc1OC(=O)N1CCOCC1` (configuration not stated): the half-maximal activity concentration (AC50) under setting [1] is 29.1 µM [rising, single point].

As for `CCOc1cc(CNc2cccc3[nH]c(C)nc23)ccc1OC`, the concentration at half-maximal activity (AC50) under setting [1] was 12.6 µM [rising, single point].

On to `Cc1nc2ccc(NC(=O)CS(=O)(=O)c3ccccc3)cc2s1`, for which the AC50 under setting [1] is 9.2 µM [falling, partial curve].

Regarding `O=C(O)CCC(=O)c1c[nH]c2ccccc12`, under setting [1], the half-maximal activity concentration (AC50) is 0.58 µM [rising, full curve, poor fit].

Take `CC(Sc1cccc[n+]1[O-])C(=O)Nc1cc(Cl)c(Cl)cc1Cl` (configuration not stated): the AC50 under setting [1] is 2.06 µM [rising, full curve].

In the case of `O=C(N/N=C/c1c[nH]c2ccccc12)c1[nH]c2ccc(Br)cc2c1-c1ccccc1`, the half-maximal activity concentration (AC50) under setting [1] was 2.06 µM [rising, full curve].

Turning to `Nc1nc(Nc2ccccc2F)sc1C(=O)c1ccccc1`, the AC50 under setting [1] is 2.82 µM [falling, partial curve, poor fit].

Turning to `Cc1ccc2[nH]c(-c3ccccc3)cc(=O)c2c1`, under setting [2], the AC50 was 5.01 µM [falling, full curve].

For the compound `CCn1c(=NC(=O)C2COc3ccccc3O2)sc2c(OC)ccc(OC)c21` (configuration not stated), the AC50 under setting [1] was 35.5 µM [rising, single point].

As to `COC(=O)C1=C(C)NC2=C(C(=O)CCC2)C1c1cn(Cc2ccc(Br)cc2)nc1-c1ccccc1` (configuration not stated), the AC50 under setting [1] is 35.5 µM [falling, single point].

For the compound `CC(/C=C/c1ccccc1)=N/NC(=O)c1nc2nc(C)cc(C)n2n1`, under setting [1], the AC50 is 35.5 µM [rising, single point].

As for `CC(=O)c1ccc(-c2ccc(C(=O)N3CCCc4ccccc43)o2)cc1`, the concentration at half-maximal activity (AC50) under setting [1] was 20 µM [falling, single point].

Take `COc1ccccc1/C=C/C(=O)OCCN1CCOCC1`: the concentration at half-maximal activity (AC50) under setting [1] was 17.8 µM [falling, partial curve].

`CCCCCn1c(=N)c(S(=O)(=O)c2ccc(Br)cc2)cc2c(=O)n3cccc(C)c3nc21`: the concentration at half-maximal activity (AC50) under setting [1] is 11.2 µM [rising, single point].

With `O=C(CNc1cccc2ccccc12)c1ccc([N+](=O)[O-])cc1`, under setting [1], the AC50 was 2.91 µM [falling, full curve, poor fit].

For `O=[n+]1cc(-c2ccc(F)cc2)n([O-])c2c1CCC2`, the AC50 under setting [1] is 3.26 µM [rising, partial curve, poor fit].

On to `CCc1nnc(NC(=O)CS(=O)(=O)Cc2ccccc2)s1`, for which the AC50 under setting [1] is 31.6 µM [rising, single point].

For `CCCCNC(=O)CSc1nc2cc3c(cc2c(=O)n1Cc1ccco1)OCO3`, under setting [1], the half-maximal activity concentration (AC50) is 5.62 µM [falling, single point].

Consider `COCCCNC(=O)C(=O)NC1CCCCCC1`, for which, under setting [1], the half-maximal activity concentration (AC50) was 23.1 µM [falling, single point].

In the case of `COc1ccc(CNC(=O)c2ccc3c(c2)N(Cc2ccccc2C)C(=O)c2ccccc2S3=O)cc1` (configuration not stated), the AC50 under setting [1] was 0.0891 µM [rising, full curve, poor fit].

`Cc1c(C(=O)Nc2ccc(Cl)cc2)c2ccccn2c1CCc1ccncc1`: the concentration at half-maximal activity (AC50) under setting [1] was 0.517 µM [rising, full curve].

As to `Cc1c(C(=O)OCC2CCCO2)[nH]c2c1C(=O)CC(c1ccco1)C2` (configuration not stated), the AC50 under setting [1] is 22.4 µM [rising, single point].

Consider `O=C(OCCCc1ccncc1)c1ccc(S(=O)(=O)N2CCOCC2)cc1`, for which the concentration at half-maximal activity (AC50) under setting [1] was 35.5 µM [rising, single point].

As for `CCN1CCN(CCNC(=O)Nc2ccc([N+](=O)[O-])cc2)CC1`, under setting [1], the half-maximal activity concentration (AC50) is 17.8 µM [rising, single point].

Regarding `CCS(=O)(=O)c1ccc(OC)c(N=Nc2ccc(O)c3ncccc23)c1`, under setting [1], the concentration at half-maximal activity (AC50) is 2.82 µM [rising, full curve, poor fit].

Take `CC(C)(C)OC(=O)Nc1ccc([C@H](NC(=O)OC(C)(C)C)C(=O)OC(C)(C)C)cc1`: the AC50 under setting [1] is 29.1 µM [rising, single point].

On to `CC(C)c1ccc(Oc2cccc(C(=O)/C(C#N)=C/N(C)C)c2)cc1`, for which the AC50 under setting [1] is 2.31 µM [falling, partial curve, poor fit].

`COC(OC)c1ccnc(SCc2ccccc2Cl)n1`: under setting [1], the concentration at half-maximal activity (AC50) was 7.94 µM [rising, partial curve, poor fit].

As for `O=C(O)CN1C(=O)/C(=C\c2ccc(OC(=O)c3ccco3)cc2)SC1=S`, under setting [1], the AC50 was 11.2 µM [rising, partial curve, poor fit].

For the compound `Cc1cc(C)nc(N/N=C/C=C/c2ccccc2)n1`, under setting [1], the AC50 was 18.4 µM [falling, single point].

Consider `CCOC(=O)c1c(C)oc2c1c(C(c1ccncc1)N1CCOCC1)c(O)c1ccccc12` (configuration not stated), for which, under setting [1], the half-maximal activity concentration (AC50) is 4.11 µM [rising, partial curve, poor fit].

In the case of `O=C1CN(C(=O)CSc2nc(-c3ccccc3)cs2)c2ccccc2N1`, under setting [1], the AC50 is 1.84 µM [rising, partial curve, poor fit].

Consider `CCN1CCCC1Cn1cnc2c([nH]c3cccc(Cl)c32)c1=O` (configuration not stated), for which, under setting [1], the AC50 was 4.47 µM [rising, partial curve, poor fit].

For the compound `O=S(=O)(O)c1cccc2c(N=Nc3ccc(O)c4ncccc34)cccc12`, the concentration at half-maximal activity (AC50) under setting [1] was 20 µM [rising, single point].

`CC(Oc1ccc(S(=O)(=O)N2CCCC2)cc1[N+](=O)[O-])C(=O)NC(C)c1ccccc1` (configuration not stated): under setting [1], the concentration at half-maximal activity (AC50) was 20.6 µM [falling, single point].

As for `Cc1cc(C(=O)CN2CCN(CC(=O)Nc3ccc(F)cc3)CC2)c(C)n1C1CC1`, under setting [1], the concentration at half-maximal activity (AC50) is 5.8 µM [falling, partial curve, poor fit].

Turning to `O=C(Nc1ccc2nc3ccccc3nc2c1)c1ccccc1`, the concentration at half-maximal activity (AC50) under setting [1] is 7.31 µM [falling, partial curve, poor fit].

Regarding `O=C1ON=C(c2ccccc2)/C1=C/c1ccc(-c2ccccc2[N+](=O)[O-])o1`, the concentration at half-maximal activity (AC50) under setting [1] was 18.4 µM [falling, single point].

On to `CCN(CC(=O)Nc1cccc(OC)c1)C(=O)c1ccco1`, for which the concentration at half-maximal activity (AC50) under setting [1] is 28.2 µM [rising, single point].

For the compound `Cc1ccccc1OCC(=O)Nc1ccc2c(c1)OCCO2`, the concentration at half-maximal activity (AC50) under setting [1] was 3.16 µM [falling, single point].

Regarding `CC(C)c1cc(NC(=O)c2ccccc2)cc(C(C)C)c1O`, the AC50 under setting [1] was 7.94 µM [falling, partial curve, poor fit].

For `N#CC1=C(N)N2C(=C(C#N)C13CCCCC3)SC1CCCCC12O` (configuration not stated), the AC50 runs as follows: under setting [1], 6.51 µM [falling, single point]; under setting [2], 3.26 µM [rising, partial curve, poor fit].

Regarding `CS(=O)(=O)NCCCCNc1ccc(C(F)(F)F)cc1[N+](=O)[O-]`, under setting [1], the half-maximal activity concentration (AC50) is 5.62 µM [rising, partial curve, poor fit].

In the case of `COC(=O)c1ccc2c(c1)N(C)CCS2`, the half-maximal activity concentration (AC50) under setting [1] is 29.1 µM [rising, single point].

`CCCCCCCCOC(=O)C1=C(C)Nc2nnnn2C1c1cccs1` (configuration not stated): under setting [1], the AC50 was 29.1 µM [falling, single point].

Turning to `O=c1cc[nH]c2ccc(OC(F)(F)F)cc12`, the AC50 under setting [1] was 35.5 µM [rising, single point].

With `CSc1nnc2ccc(-c3ccccn3)nn12`, the AC50 under setting [1] is 6.31 µM [falling, full curve, poor fit].

With `CCOc1ccc2nc(C)cc(Nc3ccc4c(c3)OCCO4)c2c1`, under setting [1], the AC50 is 12.6 µM [falling, partial curve].
